Reference: the supplement of paper PMC10338343
± gives the standard deviation. The list shows a part of the results. Many of these values have a large error.

Test system: EfPiwi piRISC loaded with L1MC piRNA (26 nt)
Assay: pre-steady-state target cleavage rate (min^-1); guide: L1MC piRNA 5'p-UAACUAAAUACUAUGCAAGCUGUAGG; MIWI and MILI are mouse PIWI proteins and EfPiwi is from a freshwater sponge; tags in brackets are library labels; higher = faster piRNA-guided slicing of the target
Details: auxiliary factor: none (no Gtsf1)
Method in brief: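 For Cleave-'n-Seq, a transcribed, DNA-blocked target RNA library […] met 1 nM active affinity-purified piRISC with one synthetic guide at 33 °C for 0–8 or 0–960 min in HEPES–potassium acetate buffer, with or without 500 nM GTSF1 partner protein. Uncleaved targets were sequenced and normalised to depth and weakly complementary targets, with three trials pooled and k3 capped at 0.0001 min^-1. A burst-and-steady-state fit supplied the pre-steady-state cleavage rate.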

Row | Sequence | pre-steady-state target cleavage rate
1 | UCCUCCUACACCUUCCAUAGUAUUUAGUUA | < 0.0001
2 | UCCUGCAUGAGCUUGCAUAGUAUUUUCAAA | 0.000497 ± 0.013
3 | UCCUGCUACAGCUUCCAUAGUAUUUUGUUA | 0.000359 ± 0.015
4 | UCCUCCUACAGCUUGCAUAGCUAUUUAGUUA | 0.00037 ± 0.013
5 | UCCUGGAUGAGCUUGCAUAGUAUUAACAAA | 0.000283 ± 0.03
6 | UCCUGGUACAGCAAGCAUAGUAUUUAGAAA | 0.000186 ± 0.015
7 | UCCUCCUACAGCUUCGAUAGUAUUUAGAAA | 0.000343 ± 0.014
8 | UCCUGGAUGUCGAAGCAUAGUAUUUUGAUA | < 0.0001
9 | UCCUGCUACAGCUUGCAUAGUUUUAGUUA | 0.000244 ± 0.017
10 | UCCUGGUACAGCUUGCAUAGUAAAUAGUAA | 0.00145 ± 0.011
11 | UCCUGGAUGUCGAUGCAUAGUAUAUUGUUA | 0.000302 ± 0.022
12 | UCCUGGUACAGCUUGCUUAGUAUUUUCAAA | 0.00035 ± 0.024
13 | UCCUGGAACAGCUUGCUAAGUAUUUUCAAA | 0.00061 ± 0.0088
14 | UCCUGGAACAGCUUCGAUAGUAUUUUCAAA | 0.00026 ± 0.017
15 | UCCUGCUACAGCUUGCAUAGUUUUUAGAAA | 0.000309 ± 0.015
16 | UCCUGGAACAGCUUGCAUACUAUUUACAAA | 0.000302 ± 0.021

Individual results from above.
pre-steady-state target cleavage rate with UCCUGGUACAGCUUGCUUAGUAUUUUCAAA reads 0.00035 ± 0.024
pre-steady-state target cleavage rate with UCCUGGUACAGCAAGCAUAGUAUUUAGAAA reads 0.000186 ± 0.015
